The source of these data is patent US20110297235A1, “USE OF TRIARYLAMINE DERIVATIVES AS HOLE-CONDUCTING MATERIALS IN ORGANIC SOLAR CELLS AND ORGANIC SOLAR CELLS CONTAINING SAID TRIARYLAMINE DERIVATIVES” (BASF SE, priority 2009, published 2011).

The nature of this data set: Test in solid dye solar cells (DSC): current/voltage characteristic under solar simulator.
The mark [1] stands for this setting: 0.1 sun, dye perylene 3, TiO2 approx. 3.1 μm.
Setting [2] is: 1 sun, dye perylene 3, TiO2 approx. 3.1 μm.
[3] abbreviates: 0.1 sun, dye D102, TiO2 approx. 1.8 μm.
[4] abbreviates: 1 sun, dye D102, TiO2 approx. 1.8 μm.
The mark [5] stands for this setting: 0.1 sun, dye D205, TiO2 approx. 1.8 μm.
[6] abbreviates: 0.1 sun, dye perylene 1, TiO2 approx. 1.8 μm.
Setting [7] is: 0.1 sun, dye perylene 2, TiO2 approx. 1.8 μm.
Where [8] appears, read: 1 sun, dye D205, TiO2 approx. 1.8 μm.
[9] abbreviates: 1 sun, dye perylene 1, TiO2 approx. 1.8 μm.
Setting [10] is: 1 sun, dye perylene 2, TiO2 approx. 1.8 μm.

As for `COc1ccc(N(c2ccc(OC)cc2)c2ccc(-c3ccc(N(c4ccc(OC)cc4)c4ccc5c(c4)Cc4cc(N(c6ccc(OC)cc6)c6ccc(-c7ccc(N(c8ccc(OC)cc8)c8ccc(OC)cc8)cc7)cc6)ccc4-5)cc3)cc2)cc1` [ID523], the efficiency is on record as 4.1% (0.1 sun, dye D205, TiO2 3.2 μm); 0.9% under setting [1]; 1.8% (1 sun, dye D205, TiO2 3.2 μm); 1.3% under setting [2]. Further, the “fill factor (FF)” value (0.1 sun, dye D205, TiO2 3.2 μm) is 58%; the “fill factor (FF)” value under setting [1] is 64%; the “fill factor (FF)” value (1 sun, dye D205, TiO2 3.2 μm) is reported as 34%; the “fill factor (FF)” value under setting [2] was 59%. The “short-circuit current density ISC” value was 0.95 mA/cm^2 (0.1 sun, dye D205, TiO2 3.2 μm); 0.21 mA/cm^2 under setting [1]; 6.76 mA/cm^2 (1 sun, dye D205, TiO2 3.2 μm); 3.40 mA/cm^2 under setting [2]. Moreover, the “terminal voltage VOC with an open circuit” value (from here on “terminal voltage VOC”) is on record as 0.74 V (0.1 sun, dye D205, TiO2 3.2 μm); 0.64 V under setting [1]; 0.80 V (1 sun, dye D205, TiO2 3.2 μm); 0.66 V under setting [2].
For the compound `COc1ccc(N(c2ccc(C)cc2)c2ccc(-c3ccc(N(c4ccc(OC)cc4)c4ccc(-c5ccc(N(c6ccc(OC)cc6)c6ccc(-c7ccc(N(c8ccc(C)cc8)c8ccc(OC)cc8)cc7)cc6)cc5)cc4)cc3)cc2)cc1` [ID572], under setting [3], the efficiency was 4.5%, the “fill factor (FF)” value is given as 58%, the “short-circuit current density ISC” value is reported as 0.91 mA/cm^2 and the “terminal voltage VOC” value was 0.84 V. Under setting [4], the efficiency is 3.1%, the “fill factor (FF)” value is 40%, the “short-circuit current density ISC” value is 8.52 mA/cm^2 and the “terminal voltage VOC” value was 0.92 V.
Consider `COc1ccc(N(c2ccc(OC)cc2)c2ccc(-c3ccc(N(c4ccc(OC)cc4)c4ccc(-c5ccc(N(c6ccc(OC)cc6)c6ccc(-c7ccc(N(c8ccc(OC)cc8)c8ccc(OC)cc8)cc7)cc6)cc5)cc4)cc3)cc2)cc1` [ID367], for which the efficiency is listed as 5.3% under setting [3]; 5.4% under setting [5]; 1.3% under setting [6]; 2.3% under setting [7]; 4.4% under setting [4]; 3.7% under setting [8]. For the same compound, the efficiency reads like this: under setting [9], 1.1%; under setting [10], 2.0%. The “fill factor (FF)” value reads like this: under setting [3], 68%; under setting [5], 70%; under setting [6], 53%; under setting [7], 68%; under setting [4], 53%; under setting [8], 46%. Further, the “fill factor (FF)” value by setting is: under setting [9], 51%; under setting [10], 54%. Further, the “short-circuit current density ISC” value is, setting by setting: under setting [3], 1.01 mA/cm^2; under setting [5], 0.97 mA/cm^2; under setting [6], 0.38 mA/cm^2; under setting [7], 0.42 mA/cm^2; under setting [4], 9.76 mA/cm^2; under setting [8], 8.92 mA/cm^2. In addition, the “short-circuit current density ISC” value runs as follows: under setting [9], 2.78 mA/cm^2; under setting [10], 4.39 mA/cm^2. In addition, the “terminal voltage VOC” value runs as follows: under setting [3], 0.78 V; under setting [5], 0.80 V; under setting [6], 0.66 V; under setting [7], 0.78 V; under setting [4], 0.86 V; under setting [8], 0.88 V. For the same compound, the “terminal voltage VOC” value is 0.74 V under setting [9] and 0.84 V under setting [10].
